Measurements reported in patent publication US20210071191A1.
Results are given in words; binding and its absence hold for the method and conditions named. Binding calls can cover weak binding; strength is not graded here. Where a sequence is shown, tags or fusion partners need not be part of it. For some of these results: Binding seen in cells or lysates may run through a third protein.

Assays:
[1] = molecular target: OsGIF1 BiFC fusion (OsGIF1 tagged with the C-terminus of YFP) (rice); experiment: BiFC in tobacco leaf epidermal cells
[2] = molecular target: OsGIF2 BiFC fusion (rice); experiment: BiFC in tobacco leaf epidermal cells
[3] = molecular target: OsGIF3 BiFC fusion (rice); experiment: BiFC in tobacco leaf epidermal cells
[4] = molecular target: OsGRF1 tagged with the N-terminus of YFP (rice); experiment: BiFC in tobacco leaf epidermal cells
[5] = molecular target: OsGRF10 tagged with the N-terminus of YFP (rice); experiment: BiFC in tobacco leaf epidermal cells
[6] = molecular target: OsGRF11 tagged with the N-terminus of YFP (rice); experiment: BiFC in tobacco leaf epidermal cells
[7] = molecular target: OsGRF12 tagged with the N-terminus of YFP (rice); experiment: BiFC in tobacco leaf epidermal cells
[8] = molecular target: OsGRF2 tagged with the N-terminus of YFP (rice); experiment: BiFC in tobacco leaf epidermal cells
[9] = molecular target: OsGRF3 tagged with the N-terminus of YFP (rice); experiment: BiFC in tobacco leaf epidermal cells
[10] = molecular target: OsGRF5 tagged with the N-terminus of YFP (rice); experiment: BiFC in tobacco leaf epidermal cells
[11] = molecular target: OsGRF6 tagged with the N-terminus of YFP (rice); experiment: BiFC in tobacco leaf epidermal cells
[12] = molecular target: OsGRF7 tagged with the N-terminus of YFP (rice); experiment: BiFC in tobacco leaf epidermal cells
[13] = molecular target: OsGRF8 tagged with the N-terminus of YFP (rice); experiment: BiFC in tobacco leaf epidermal cells
[14] = molecular target: OsGRF9 tagged with the N-terminus of YFP (rice); experiment: BiFC in tobacco leaf epidermal cells
HA-tagged OsGIF1 (rice) = experiment: Co-IP from A. thaliana protoplasts, anti-DDDDK-tag beads, anti-Flag and anti-HA immunoblot

Measured: binding

B1: cYFP-SLR1 (protein, rice, UniProt Q7G7J6 1-625, looked up, not shown: large carriers)
chain: MKREYQEAGGSSGGGSSADMGSCKDKVMAGAAGEEEDVDELLAALGYKVRSSDMADVAQKLEQLEMAMGMGGVSAPGAADDGFVSHLATDTVHYNPSDLSSWVESMLSELNAPLPPIPPAPPAARHASTSSTVTGGGGSGFFELPAAADSSSSTYALRPISLPVVATADPSAADSARDTKRMRTGGGSTSSSSSSSSSLGGGASRGSVVEAAPPATQGAAAANAPAVPVVVVDTQEAGIRLVHALLACAEAVQQENFAAAEALVKQIPTLAASQGGAMRKVAAYFGEALARRVYRFRPADSTLLDAAFADLLHAHFYESCPYLKFAHFTANQAILEAFAGCHRVHVVDFGIKQGMQWPALLQALALRPGGPPSFRLTGVGPPQPDETDALQQVGWKLAQFAHTIRVDFQYRGLVAATLADLEPFMLQPEGEADANEEPEVIAVNSVFELHRLLAQPGALEKVLGTVHAVRPRIVTVVEQEANHNSGSFLDRFTESLHYYSTMFDSLEGGSSGQAELSPPAAGGGGGTDQVMSEVYLGRQICNVVACEGAERTERHETLGQWRNRLGRAGFEPVHLGSNAYKQASTLLALFAGGDGYRVEEKEGCLTLGWHTRPLIATSAWRVAAA
not listed: HA-tagged OsGIF1 (rice)
binds: all other assays above

B2: Flag-tagged SLR1 (protein, rice, UniProt Q7G7J6 1-625, looked up, not shown: small tags and cut ends)
chain: B1 chain
binds: HA-tagged OsGIF1 (rice)

B3: nYFP-OsGRF4 (protein, not shown: large carriers)
chain: MTMPYASLSPAVADHRSSPAAATASLLPFCRSTPLSAGGGVVAMGEDAPMTARWPPAAAARLPPFTAAQYEELEQQALIYKYLVAGVPVPPDLVLPIRRGLDSLAARFYNHPALGYGPYFGKKLDPEPGRCRRTDGKKWRCSKEAAPDSKYCERHMHRGRNRSRKPVETQLVAQSQPPSSVVGSAAAPLAAASNGSSFQNHSLYPAIAGSNGGGGGRNMPSSFGSALGSQLHMDNAAPYAAVGGGTGKDLRYTAYGTRSLADEQSQLITEAINTSIENPWRLLPSQNSPFPLSSYSQLWALSDLGQNTPSSLSKVQRQPLSFFGNDYAAVDSVKQENQTLRPFFDEWPKGRDSWSDLADENANLSSFSGTQLSISIPMASSDFSAASSRSTNGD
binds: [1]
